Reference: paper PMC4022373
No constants are given. Whether binding was seen depends on the method and setting. Binding seen in cells or lysates may run through a third protein. Some results given as binding are weak or reduced against the parent protein; the word gives no strength.

Chains of the proteins cited; added tags and fusions are not shown. Residues count along the entry.
UniProt P46821, residues 2207-2468: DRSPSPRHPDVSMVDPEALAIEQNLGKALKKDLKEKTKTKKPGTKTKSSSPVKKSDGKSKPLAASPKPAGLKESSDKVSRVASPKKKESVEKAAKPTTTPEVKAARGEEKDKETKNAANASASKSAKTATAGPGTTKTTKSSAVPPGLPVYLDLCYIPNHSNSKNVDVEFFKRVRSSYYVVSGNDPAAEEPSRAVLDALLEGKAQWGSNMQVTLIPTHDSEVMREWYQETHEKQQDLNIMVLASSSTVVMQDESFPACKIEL
UniProt Q5S007, residues 1879-2138: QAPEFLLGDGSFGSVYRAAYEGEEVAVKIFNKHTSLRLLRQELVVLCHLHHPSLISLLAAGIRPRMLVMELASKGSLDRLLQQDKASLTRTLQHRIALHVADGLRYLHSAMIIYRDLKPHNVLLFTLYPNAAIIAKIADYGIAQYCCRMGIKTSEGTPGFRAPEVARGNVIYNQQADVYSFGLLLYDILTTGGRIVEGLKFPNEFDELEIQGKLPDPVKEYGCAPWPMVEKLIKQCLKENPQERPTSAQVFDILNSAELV

Target: LC1-GST (human) (UniProt P46821)
Test: pull-down; purified LC1-GST (and GST) added to lysate of LRRK2 kinase myc-transfected SKNSH, incubated at 4°C for 2 hours; detection with anti-myc antibody; only the target purified

With “LRRK2 kinase myc (from UniProt Q5S007 1879-2138) (domain or fragment)” the binding was “binds”.
